Experimental data from article PMC11062894, “Protein-based bandpass filters for controlling cellular signaling with chemical inputs” (Nature Chemical Biology, 2023).
Several values for one entry are separate records, joined by “and”; a condition that tells them apart may be missing. Identical values can stand only once. This continues a long series; more values of the same kind are listed elsewhere.

Amino acid sequences for entries named in this document (tags omitted).
UniProt P10415, whole entry: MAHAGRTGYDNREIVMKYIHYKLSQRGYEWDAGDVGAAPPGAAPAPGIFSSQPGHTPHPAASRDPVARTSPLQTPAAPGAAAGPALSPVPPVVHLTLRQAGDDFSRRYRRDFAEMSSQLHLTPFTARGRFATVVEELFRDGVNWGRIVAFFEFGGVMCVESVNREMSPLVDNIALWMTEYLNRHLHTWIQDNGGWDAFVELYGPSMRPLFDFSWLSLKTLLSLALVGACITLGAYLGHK

Target: GEMS with the dual-drug-controlled (A-1155463, venetoclax) switch (Bcl2 and BclXL–LD3) in HEK293T cells (Homo sapiens, UniProt P10415)
Assay: GEMS SEAP reporter assay, dual-drug-controlled (A-1155463, venetoclax) switch
Format: cell-based
Conditions: Figure 2c, ON-phase
From the text: In the first step, we sought to construct a dual-drug-controlled switch to test whether the ON and OFF switching processes can be combined in our receptor architecture. We used Bcl2 and BclXL as the orthogonal drug receptors, which interact with the LD3 protein and respond to their own specific inhibitors. In such a setting, the dual-drug-controlled switch will turn ON in response to one drug and OFF in response to the other, thus mimicking bandpass filtering behavior (Supplementary Fig. 1d). […] To test the switch behavior, we employed the generalizable extracellular molecule sensor (GEMS) platform, which senses extracellular molecules and thus regulates cell surface signaling pathways (Fig. 2a). This receptor platform is based on a mutated EpoR extracellular and transmembrane domain fused to an IL-6RB intracellular domain. Dimerization of EpoR extracellular domains is controlled by N-terminally fused inducible dimerization domains, which drive IL-6RB activation and STAT3 signaling. The Bcl2 and BclXL–LD3 complexes were fused to the extracellular EpoR domains. […] The dimerization of Bcl2 and LD3 causes EpoR extracellular domain dimerization and triggers JAK/STAT3 signaling. Active STAT3 drives the expression of a reporter protein (secreted alkaline phosphatase (SEAP)) controlled by a STAT3-dependent promoter.
HEK293T cells were seeded in a 96-well plate 24 h before transfection. The transfection mix in each well consisted of 3 ng of constitutive human CMV promoter driven mammalian STAT3 expression vector (PhCMV-STAT3-pA), 30 ng of STAT3-induced reporter expression (OStat3-PhCMVmin-SEAP-pA) and 50 ng of expression vectors for each GEMS receptor chain (PSV40-IgK-(drughigh receptor)-EpoRm-IL-6RBm-pA and PSV40-IgK-(druglow receptor-GGGGSX3-LD3)-EpoRm-IL-6RBm-pA). For the specific drughigh receptor and druglow receptor used in the different cellular assays, they are indicated as wild type or with mutations. Then, plasmid DNA was mixed with 50 μl opti-MEM (Thermo Fisher) and 600 ng of polyethyleneimine (Polysciences, catalog no. 24765-1). For drug treatment experiments, drugs were added 12 h post-transfection and incubated with cells for 24 h before the SEAP reporter detection assay.
SEAP activity (U l^−1) in cell culture supernatants was quantified by kinetic measurements at 405 nm (1 minute per measurement for 30 cycles) of absorbance increase due to phosphatase-mediated hydrolysis of para-nitrophenyl phosphate (pNPP).
Binding affinities of SPR drug competition assays were calculated using three-parameter nonlinear regression in GraphPad Prism (v.8.3.0). Representative data of cell assays are presented as individual values and mean values (bars). n = 3 refers to biological replicates. All IC50 or EC50 values of cell assays reported were calculated using four-parameter nonlinear regression ± s.d. Bandpass features of cutoff concentrations and Bandwidth90% were estimated based on the curve fitted using bell-shaped curve nonlinear regression in GraphPad Prism (v.8.3.0).

Structure (SMILES): CN(C)CC#Cc1ccc(OCCCc2sc(N3CCc4cccc(C(=O)Nc5nc6ccccc6s5)c4C3)nc2C(=O)O)c(F)c1 [A-1155463]
- SEAP (U/L) (Independent repeat, A-1155463 0.001 nM): 8.652 U/L and 8.318 U/L and 8.29 U/L
- SEAP (U/L) (Independent repeat, A-1155463 0.01 nM): 9.057 U/L and 8.001 U/L and 10.9754 U/L
- SEAP (U/L) (Independent repeat, A-1155463 0.1 nM): 14.1845 U/L and 11.1764 U/L and 14.2499 U/L
- SEAP (U/L) (Independent repeat, A-1155463 316 nM): 456.921 U/L and 405.388 U/L and 502.279 U/L
- SEAP (U/L) (Independent repeat, A-1155463 1000 nM): 394.23 U/L and 382.851 U/L and 392.812 U/L
- SEAP (U/L) (Representative, A-1155463 0.001 nM): 5.8952 U/L and 7.209 U/L and 6.83 U/L
- SEAP (U/L) (Representative, A-1155463 0.01 nM): 7.843 U/L and 6.762 U/L and 8.087 U/L
- SEAP (U/L) (Representative, A-1155463 0.1 nM): 9.616 U/L and 8.189 U/L and 10.3625 U/L
- SEAP (U/L) (Representative, A-1155463 316 nM): 87.4799 U/L and 90.9245 U/L
- SEAP (U/L) (Representative, A-1155463 1000 nM): 61.3538 U/L and 85.7682 U/L and 92.3267 U/L
